Test results: patent US20130131321A1, “LIGANDS FOR ANTIBODY AND Fc-FUSION PROTEIN PURIFICATION BY AFFINITY CHROMATOGRAPHY” (GRAFFINITY PHARMACEUTICALS GMBH, priority 2010, published 2013)
Some of these results come from one statement about several compounds together.

Assays:
Palivizumab = test: Microtiter plate chromatography of resins, Palivizumab (bound, yield); format: binding, humanized; details: whole IgG 0.75 mg ml^-1 in PBS, pH 7.3
Procedure: (§1) Resins were assessed in packed mode by microtiter plate chromatography. For each column, approximately 30 μl of resin were transferred to a 384-well filter plate and sealed with appropriate top frits.
Columns were equilibrated with 6.7 column volumes (cv) of phosphate buffered saline (0.15 M NaCl, 20 mM sodium phosphate, pH 7.3; PBS) prior to injection. Either 3.3 cv of whole IgGs dissolved at 0.75 mg ml^−1, Fab or Fc fragments dissolved at 0.25 mg ml^−1 (all three in PBS) or host cell proteins (HCP) were injected onto columns. Antibody fragments of Bevacizumab (Fab and Fc) were prepared by cleavage of whole IgG with papain protease (3) according to the protocol of the manufacturer. […] Volumes transferred were spun through columns at 50 g for 1-2 min. During injection of samples, acceleration was reduced to 10 g and centrifugation time increased to 5-10 min. Effluent fractions were collected in 384-well plates and concentrations of protein analyzed by Bradford assay. Protein masses mi, mft and me (see below) were calculated as the product of fraction volume and measured protein concentration.
(§2) The fraction of ‘bound’ protein was calculated as the difference between the total mass of protein injected mi and the mass of protein detected in the flowthrough mft, divided by the total mass of protein injected.
(§3) The ‘yield’ of protein was calculated as the mass of protein eluted me, divided by the mass of protein injected mi.
the fraction of ‘bound’ protein and the ‘yield’ of protein were calculated for each resin based on data for whole IgG-antibodies. In the case of Bevacizumab fragments and host cell proteins, only the fraction of ‘bound’ protein is given. Selectivity of resins was calculated from data for Bevacizumab Whole IgG and host cell proteins. Due to limited experimental precision, selectivity was truncated beyond values of 10.

Bevacizumab = biological target: T1, Bevacizumab (Homo sapiens, UniProt P01857); test: Microtiter plate chromatography of resins, Bevacizumab whole IgG (bound, yield, selectivity); format: binding, humanized; details: whole IgG 0.75 mg ml^-1 in PBS, pH 7.3
T1 construct: fused on or other part: humanised anti-VEGF-A VH domain N-terminal of the gamma-1 constant region (engineered, no UniProt entry)
Procedure: as §1
Columns were equilibrated with 6.7 column volumes (cv) of phosphate buffered saline (0.15 M NaCl, 20 mM sodium phosphate, pH 7.3; PBS) prior to injection. Either 3.3 cv of whole IgGs dissolved at 0.75 mg ml^−1, Fab or Fc fragments dissolved at 0.25 mg ml^−1 (all three in PBS) or host cell proteins (HCP) were injected onto columns. Antibody fragments of Bevacizumab (Fab and Fc) were prepared by cleavage of whole IgG with papain protease (3) according to the protocol of the manufacturer. […] Effluent fractions were collected in 384-well plates and concentrations of protein analyzed by Bradford assay. Protein masses mi, mft and me (see below) were calculated as the product of fraction volume and measured protein concentration.
as §2, §3
The ‘selectivity’ of resins was calculated as the fraction of bound antibody BAb, divided by the fraction of bound host cell proteins BHCP. […]

Row | Compound | fraction of bound Palivizumab (Palivizumab) | fraction of bound Bevacizumab (Bevacizumab)
1 | COc1ccc(NC(=O)c2cn3ccsc3n2)cc1C(=O)NCCCN [Ligand L37, 5-(Imidazo[2,1-b]thiazol-6-yl)carboxamido-2-methoxybenzoic acid N-(3-aminopropyl)amide] | more than 90% | more than 90%
2 | COc1ccc(NC(=O)c2nn(C)c3ccccc23)cc1C(=O)NCCCN [Ligand L27, 2-Methoxy-5-(1-methylindazol-3-yl)carboxamidobenzoic acid N-(3-aminopropyl)amide] | more than 90% | –
3 | COc1ccc(NC(=O)c2cc(-c3ccco3)n(C)n2)cc1C(=O)NCCCN [Ligand L1, 5-[5-(2-Furyl)-1-methylpyrazol-3-yl]carboxamido-2-methoxybenzoic acid N-(3-aminopropyl)amide] | more than 90% | –
4 | COc1ccc(NC(=O)c2onc3ccccc23)cc1C(=O)NCCCN [Ligand L31, 5-(Benzo[c]isoxazol-3-yl)carboxamido-2-methoxybenzoic acid N-(3-aminopropyl)amide] | more than 90% | more than 90%
